From PMC5355126
No constants are given. Whether binding was seen depends on the method and setting. Binding seen in cells or lysates may run through a third protein. Some binding calls cover weakened binding; strength is not graded here.

Sequences of proteins named here, by UniProt entry; tags and fusion partners are left off.
UniProt P49841: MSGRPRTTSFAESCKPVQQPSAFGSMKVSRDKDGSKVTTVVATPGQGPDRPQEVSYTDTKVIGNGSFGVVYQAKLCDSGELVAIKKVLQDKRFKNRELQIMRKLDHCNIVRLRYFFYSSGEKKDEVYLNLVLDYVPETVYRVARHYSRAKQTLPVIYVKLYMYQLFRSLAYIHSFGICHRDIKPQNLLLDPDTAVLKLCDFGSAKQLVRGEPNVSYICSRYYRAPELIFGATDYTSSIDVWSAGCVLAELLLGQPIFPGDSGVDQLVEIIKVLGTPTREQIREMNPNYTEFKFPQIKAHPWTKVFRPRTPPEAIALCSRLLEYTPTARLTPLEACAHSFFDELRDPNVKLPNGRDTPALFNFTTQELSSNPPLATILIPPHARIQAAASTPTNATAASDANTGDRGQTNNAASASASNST
UniProt Q86TM3: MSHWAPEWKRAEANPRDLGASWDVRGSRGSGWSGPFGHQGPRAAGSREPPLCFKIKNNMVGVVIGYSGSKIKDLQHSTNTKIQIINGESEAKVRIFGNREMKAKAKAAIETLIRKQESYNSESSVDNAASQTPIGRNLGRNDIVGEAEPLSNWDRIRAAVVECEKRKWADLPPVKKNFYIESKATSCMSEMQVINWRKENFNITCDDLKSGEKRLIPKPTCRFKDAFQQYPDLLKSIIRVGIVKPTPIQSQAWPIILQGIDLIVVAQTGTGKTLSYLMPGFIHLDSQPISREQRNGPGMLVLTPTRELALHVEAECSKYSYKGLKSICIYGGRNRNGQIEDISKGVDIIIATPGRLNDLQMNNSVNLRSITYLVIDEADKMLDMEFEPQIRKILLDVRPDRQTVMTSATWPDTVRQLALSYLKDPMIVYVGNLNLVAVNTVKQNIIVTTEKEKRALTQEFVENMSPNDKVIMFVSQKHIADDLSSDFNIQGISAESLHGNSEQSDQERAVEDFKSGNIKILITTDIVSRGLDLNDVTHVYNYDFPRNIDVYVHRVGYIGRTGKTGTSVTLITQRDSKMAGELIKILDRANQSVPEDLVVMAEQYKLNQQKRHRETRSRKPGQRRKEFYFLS

Key:
[1] = target: T1, Biotin-GTGKT peptide; experiment: co-IP; printed as '(data shown)'; biotin-labeled GTGKT peptide in Malme3M^R cells; only the target purified
T1 sequence (peptide, biotin): GTGKT

[2] = target: T1, Biotin-GTGKT peptide; experiment: co-IP; Malme3M cells transfected with full-length CAGE or each CAGE deletion construct, then treated with GTGKT peptide (Supplementary Figure 5A); only the target purified
[3] = target: T1, Biotin-GTGKT peptide; experiment: co-IP; biotin-GTGKT peptide (10 uM) brought into Malme3M^R-Taxol cells for 48 h; whole-cell extracts incubated with anti-biotin antibody (2 ug/ml) 12 h at 4 C, precipitated with streptavidin-linked agarose beads, Western blot; only the target purified
[4] = target: GSK3β, endogenous (human (endogenous in Malme3M^R, SNU387^R, Malme3M)) (UniProt P49841); experiment: co-IP; Malme3M cells transiently transfected with each CAGE construct (1 ug), lysates 48 h after transfection; antibody 2 ug/ml
[5] = target: GSK3β, endogenous (human (endogenous in Malme3M^R, SNU387^R, Malme3M)) (UniProt P49841); experiment: co-IP; data not shown; endogenous proteins in SNU387^R cells
[6] = target: GSK3β, endogenous (human (endogenous in Malme3M^R, SNU387^R, Malme3M)) (UniProt P49841); experiment: co-IP; lysates of xenograft or lung-metastasis tumours (Malme3M^R, SNU387^R) from nude mice injected with peptide (10 or 50 ug/mouse); antibody 2 ug/ml
[7] = target: GSK3β, endogenous (human (endogenous in Malme3M^R, SNU387^R, Malme3M)) (UniProt P49841); experiment: co-IP; endogenous proteins, lysates of Malme3M^R, SNU387^R or Malme3M^R-Taxol cells treated with the indicated peptide (10 uM) for 48 h; antibody 2 ug/ml
[8] = target: GSK3β, endogenous (human (endogenous in Malme3M^R, SNU387^R, Malme3M)) (UniProt P49841); experiment: co-IP; endogenous proteins, cell lysates (Malme3M^R; also Malme3M transfected with miR-200b inhibitor); 50 mM HEPES pH 7.6, 150 mM NaCl, 5 mM EDTA, 0.1% Nonidet P-40; antibody 2 ug/ml, protein A/G-Sepharose, 4 C

With “GSK3β, endogenous (from UniProt P49841 1-420)” the binding [1] was “no binding”, the binding [2] was “no binding” and the binding [3] was “no binding (tested: 10 μM)”.

“Full-length wild type CAGE (G-T-G-K-T), transfected construct (from UniProt Q86TM3 1-631)” was tested, and the binding [4] was “binds” and the binding [2] was “binds”.

“CAGE (cancer/testis antigen CAGE), endogenous (from UniProt Q86TM3 1-631)” was tested, and the binding [5] was “binds”, the binding [1] was “binds” and the binding [6] was “binds”. The binding [7] was “binds”, the binding [8] was “binds” and the binding [3] was “binds”.
